{"source": "PubChem BioAssay AID504467", "about": "(National Center for Advancing Translational Sciences (NCATS), 2011)", "note": "Out of some 330,000 compounds screened, about 7,700 (2.3%) were called active. Inconclusive results, whose numbers are uncertain, are shown with a selection of clear calls. The call rests on the fitted dose curve; in most records, active means well fitted inhibition curve with a large enough effect; inconclusive means small, poorly fitted or top-dose-only effect, or effect the other way; inactive means flat fitted curve, though single readings scatter. Potencies of inconclusive entries are doubtful fits and often do not repeat. On the % scale 0 is the no-effect control and ±100 the full control effect; potency means the concentration at half of the fitted maximal effect."}
{"assay": "qHTS screen for small molecules that inhibit ELG1-dependent DNA repair in human embryonic kidney (HEK293T) cells expressing luciferase-tagged ELG1; further: nearly all actives have a fitted effect of over 55% in size", "details": "HEK293T ELG1-luciferase reporter, luminescence, 16 h, DNA damage induced by 5-fluorouridine; activity change, negative = inhibition: at 46.1 µM (top of the series)", "in_short": "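Step one: seed 2,000 cells per well. Step two: pin-transfer compound or DMSO alongside 5-fluorouridine. Step three: incubate 16 hr, 37 °C, 5% CO2. Step four: add ONE-Glo, wait 30 min, read luminescence.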"}
{"smiles": "COc1ccccc1C(=O)Nc1nc(-c2cccs2)c(NC(C)=O)s1", "Potency": "inconclusive: 6.51 µM [activator, partial curve]"}
{"smiles": "CCN1CCS/C1=C/C=C/C1=[N+](CC)CCS1", "activity change, negative = inhibition": "inactive: -0.832%"}
{"smiles": "CCN(CC(=O)Nc1ccccc1OC)C(=O)c1ccc2[nH]c3c(c2c1)CC(C)CC3", "note": "(centres undefined)", "Potency": "inconclusive: 22.4 µM [inhibitor, single point]"}
{"smiles": "CC1CN(S(=O)(=O)c2ccc(NC(=O)c3cc(-c4ccccc4O)n[nH]3)cc2)CC(C)O1", "note": "(centres undefined)", "Potency": "active: 20 µM"}
{"smiles": "Cc1cc(N/N=C/c2ccccc2O)nc(N2CCOCC2)n1", "activity change, negative = inhibition": "inactive: -5.74%"}
{"smiles": "CC(C)=NOc1nc(N(C)C)nc(N(C)C)n1", "activity change, negative = inhibition": "inactive: -0.187%"}
{"smiles": "CCCc1cc(C(=O)Nc2cccnc2)no1", "Potency": "inconclusive: 16.4 µM [activator, partial curve]"}
{"smiles": "COc1ccc(-n2c(N)c(C(=O)Nc3c(C)n(C)n(-c4ccccc4)c3=O)c3nc4ccccc4nc32)cc1", "Potency": "inconclusive: 29.1 µM [activator, single point]"}
{"smiles": "O=C(NCc1ccco1)/C(=C/c1ccco1)NC(=O)c1ccc(Br)o1", "Potency": "inconclusive: 20.6 µM [activator, partial curve, poor fit]"}
{"smiles": "Fc1cccc(Cn2cc(C(=S)N3CCOCC3)c3ccccc32)c1", "Potency": "inconclusive: 32.6 µM [inhibitor, partial curve, poor fit]"}
{"smiles": "C(=N\\Nc1ccccn1)/c1c[nH]c2ccccc12", "Potency": "inconclusive: 20.6 µM [activator, partial curve]"}
{"smiles": "Cc1cnc(NC(=O)C2(c3ccccc3)CC2)s1", "Potency": "inconclusive: 25.9 µM [activator, partial curve, poor fit]"}
{"smiles": "CC1CCN(S(=O)(=O)c2ccc(C(=O)Nc3nnc(-c4ccncc4)o3)cc2)CC1", "Potency": "inconclusive: 7.3 µM [inhibitor, partial curve]"}
{"smiles": "CCc1ccccc1NC(=S)N(CCc1ccncc1)C(C)C", "activity change, negative = inhibition": "inactive: -3.32%"}
{"smiles": "COC(=O)c1cc(OC)c(OC)cc1NC(=O)CSc1ccc(C)cc1", "Potency": "inconclusive: 23.1 µM [inhibitor, single point]"}
{"smiles": "CCOc1ccc(CN2CCN(Cc3cc4ccccc4[nH]3)CC2CCO)cc1", "note": "(centres undefined)", "activity change, negative = inhibition": "inactive: 9.35%"}
{"smiles": "COc1ccc(C(=O)CC(=O)C(=O)Nc2ccccc2OC)cc1", "Potency": "inconclusive: 16.4 µM [inhibitor, partial curve]"}
{"smiles": "O=S(=O)(c1ccc(Cl)cc1)c1nc(-c2ccccc2F)oc1NCCN1CCOCC1", "Potency": "inconclusive: 32.6 µM [inhibitor, single point]"}
{"smiles": "Cc1cccc(OCCC(=O)Nc2ccc(S(=O)(=O)N3CCCC3)cc2)c1", "Potency": "inconclusive: 25.9 µM [inhibitor, single point]"}
{"smiles": "C/C(=N\\NC(=O)C1CCCC1)c1ccc(Cl)cc1", "Potency": "inconclusive: 16.4 µM [activator, partial curve]"}
{"smiles": "COc1ccc(F)cc1S(=O)(=O)NCC(c1ccco1)N1CCc2ccccc2C1", "note": "(centres undefined)", "activity change, negative = inhibition": "inactive: -4.1%"}
{"smiles": "COc1ccc(OCCSc2ncccn2)cc1", "Potency": "inconclusive: 3.55 µM [activator, full curve]"}
{"smiles": "CC(=O)Nc1ccc(Nc2nc(C)c([N+](=O)[O-])c(Nc3ccccc3)n2)cc1", "Potency": "active: 14.6 µM"}
{"smiles": "CCN1C(=O)/C(=C/c2nc3ccccc3c(=O)n2-c2ccccc2)c2ccccc21", "Potency": "inconclusive: 11.6 µM [inhibitor, partial curve, poor fit]"}
{"smiles": "CCC(=O)N1CCc2cc(Br)cc(S(=O)(=O)Nc3c(C)n(C)n(-c4ccccc4)c3=O)c21", "activity change, negative = inhibition": "inactive: 13.9%"}
{"smiles": "COc1ccc(C2c3[nH]c4ccccc4c3CCN2C(=O)c2ccccc2C(C)=O)c(F)c1", "note": "(centres undefined)", "Potency": "inconclusive: 29.1 µM [inhibitor, single point]"}
{"smiles": "CCOc1ccc(/C=C/C(=O)Nc2cccc(C(C)=O)c2)cc1", "Potency": "inconclusive: 2.31 µM [activator, single point]"}
{"smiles": "CCCN=C1N(CC)C[C@@H]2[C@@H]3C(=O)N(C)C(=O)[C@@H]3[C@](Cc3ccccc3)(C(=O)OC)N12", "activity change, negative = inhibition": "inactive: 22.8%"}
{"smiles": "Cc1ccc(Cl)c2c1NC(=O)C2(O)CC(=O)c1ccc(Br)cc1", "note": "(centres undefined)", "Potency": "inconclusive: 29.1 µM [activator, single point]"}
{"smiles": "CCc1ccc(NC(=O)c2ccccc2NC(=O)C2CCCO2)cc1", "note": "(centres undefined)", "Potency": "inconclusive: 4.61 µM [activator, partial curve]"}
{"smiles": "O=C(Nc1nnc2n1CCS2)c1ccco1", "activity change, negative = inhibition": "inactive: 0%"}
{"smiles": "O=C(Cn1nnc(-c2ccccc2-n2cnnn2)n1)N1CCCCC1", "activity change, negative = inhibition": "inactive: 1.87%"}
{"smiles": "Cc1ccc(NC(=S)N(Cc2ccco2)C(C)c2cccs2)c(Cl)c1", "note": "(centres undefined)", "activity change, negative = inhibition": "inactive: -4.89%"}
{"smiles": "Cc1ccc(C)c(NC(=O)c2ccc3ccccc3n2)c1", "Potency": "inconclusive: 1.84 µM [activator, full curve]"}
{"smiles": "CS(=O)(=O)c1ccc(Cl)c(NC(=O)CN2CCCC2c2ccc3c(c2)OCCCO3)c1", "note": "(centres undefined)", "Potency": "inconclusive: 18.3 µM [inhibitor, single point]"}
{"smiles": "CCOC(=O)c1c(NC(=O)Cn2nc(C(F)(F)F)cc2C)sc(C)c1C", "Potency": "inconclusive: 14.6 µM [activator, partial curve]"}
{"smiles": "O=C1NCC2=C1C(c1ccc(Br)cc1)Nc1ccccc1N2", "note": "(centres undefined)", "Potency": "inconclusive: 18.4 µM [activator, single point]"}
{"smiles": "Cc1nn(Cc2ccc(F)cc2)c(C)c1NC(=O)c1nn(C)cc1Cl", "activity change, negative = inhibition": "inactive: -19.5%"}
{"smiles": "O=C1CN(C(=O)c2cc3ccccc3oc2=O)C(c2ccc(F)cc2)c2cc(F)ccc2N1", "note": "(centres undefined)", "activity change, negative = inhibition": "inactive: -0.975%"}
{"smiles": "CCOC(=O)C1(CCOC)CCN(Cc2cc3ccccc3s2)CC1", "Potency": "inconclusive: 0.0891 µM [inhibitor, full curve, poor fit]"}
{"smiles": "O=C(CSCc1ccc(Cl)cc1)N1CCOCC1", "Potency": "inconclusive: 14.6 µM [activator, single point]"}
{"smiles": "COC(=O)C1=C(C)NC(C)=C(C(=O)OC)C1C1CC=CCC1", "note": "(centres undefined)", "Potency": "inconclusive: 23.1 µM [activator, single point]"}
{"smiles": "O=S(=O)(c1cccs1)N1CCN(c2ccnc3cc(Cl)ccc23)CC1", "Potency": "inconclusive: 25.9 µM [inhibitor, single point]"}
{"smiles": "CCOC(=O)N1CCC(N2CCCC(C(=O)c3cccc(OC(C)C)c3)C2)CC1", "note": "(centres undefined)", "Potency": "inconclusive: 29.1 µM [inhibitor, single point]"}
{"smiles": "O=Cc1cc(-c2ccccc2)[nH]c1-c1ccccc1", "Potency": "inconclusive: 3.66 µM [activator, single point]"}
{"smiles": "Cc1ccc(NP(=O)(c2ccc(N(C)C)cc2NC(=O)c2cccs2)N2CCOCC2)cc1Cl", "note": "(centres undefined)", "Potency": "active: 16.4 µM"}
{"smiles": "C=C(C)COc1ccc2c(C)c(C)c(=O)oc2c1OCC(=C)C", "Potency": "inconclusive: 23.1 µM [inhibitor, single point]"}
{"smiles": "COc1cccc(/C=N/n2c(N)c(S(=O)(=O)c3cccs3)c3nc4ccccc4nc32)c1OC", "Potency": "inconclusive: 3.26 µM [inhibitor, full curve]"}
{"smiles": "O=C(NCc1ccccc1F)c1cccc(S(=O)(=O)N2CCCCC2)c1", "activity change, negative = inhibition": "inactive: -29.4%"}
{"smiles": "O=C(NCCCO)c1c(O)c2cccc3c2n(c1=O)CCC3", "activity change, negative = inhibition": "inactive: -3.16%"}
{"smiles": "CC1=C(C(=O)OCc2ccccc2)C(c2ccsc2)NC(=O)N1C", "note": "(centres undefined)", "Potency": "inconclusive: 29.1 µM [inhibitor, single point]"}
{"smiles": "COc1ccc(-c2nn(-c3ccccc3)cc2/C=N/Nc2ccc(S(N)(=O)=O)cc2[N+](=O)[O-])cc1OC", "Potency": "inconclusive: 6.51 µM [inhibitor, single point]"}
{"smiles": "CC(=O)Nc1ccc(NC2=C(Cl)C(=O)c3ccccc3C2=O)cc1", "Potency": "inconclusive: 2.31 µM [activator, partial curve]"}
{"smiles": "Cc1nnc(N2C(=O)c3cccc4c([N+](=O)[O-])ccc(c34)C2=O)s1", "Potency": "inconclusive: 20.6 µM [inhibitor, single point]"}
{"smiles": "CCC(C)(C)NC(=O)C(c1ccc(F)cc1)N(Cc1ccccc1)C(=O)c1cnccn1", "note": "(centres undefined)", "activity change, negative = inhibition": "inactive: -6.36%"}
{"smiles": "COC(=O)NCC(c1ccc2c(c1)OCO2)N1CCN(c2ccc(OC)cc2)CC1", "note": "(centres undefined)", "activity change, negative = inhibition": "inactive: 2.54%"}
{"smiles": "Cc1ccc(C(=O)Nc2nnc(CC(=O)N/N=C/c3ccncc3)s2)cc1", "Potency": "inconclusive: 18.3 µM [activator, partial curve]"}
{"smiles": "O=C(NCc1ccc(CNC(=O)c2ccco2)cc1)c1ccco1", "activity change, negative = inhibition": "inactive: 0.15%"}
{"smiles": "O=C(COC(=O)c1cccs1)c1ccccc1", "Potency": "inconclusive: 10.3 µM [activator, partial curve]"}
{"smiles": "CC(/C=N/NC(=O)c1ccncc1)=C\\c1ccc(C(C)C)cc1", "Potency": "inconclusive: 2.06 µM [activator, partial curve, poor fit]"}
{"smiles": "CCOc1ccc2nc(NC(=O)CN3CCN(C)CC3)sc2c1", "Potency": "inconclusive: 29.1 µM [activator, single point]"}
{"smiles": "Cc1ccc(/C=N/NC(=O)c2ccccn2)s1", "Potency": "inconclusive: 3.26 µM [activator, partial curve, poor fit]"}
{"smiles": "CC(C)(C)NC(=O)c1cc(NC(=O)c2ccco2)cc(NC(=O)c2ccco2)c1", "Potency": "inconclusive: 11.2 µM [inhibitor, partial curve, poor fit]"}
{"smiles": "Cc1c(C(=O)N(C)C)sc2nc(-c3ccccn3)[nH]c(=O)c12", "Potency": "inconclusive: 14.6 µM [activator, single point]"}
{"smiles": "COC(=O)CCC(=O)OC1(C)C(=O)C=C2C=C(C3CC3)N(CCCOC(C)C)C=C2C1=O", "note": "(centres undefined)", "activity change, negative = inhibition": "inactive: 9.5%"}
{"smiles": "O=C(C[n+]1cc(-c2ccc(F)cc2)n2c1CCC2)Nc1nc(-c2ccccc2)cs1", "activity change, negative = inhibition": "inactive: 25.2%"}
{"smiles": "CCCC(C)NC(=O)C1c2ccccc2Oc2ccccc21", "note": "(centres undefined)", "activity change, negative = inhibition": "inactive: 17.9%"}
{"smiles": "CC(=O)Nc1ccc(NC(=O)CSc2nc3ccccc3nc2N2CCCCC2)cc1", "Potency": "inconclusive: 0.0041 µM [inhibitor, full curve, poor fit]"}
{"smiles": "Cc1oc(CSCCSCc2cc(C(=O)O)c(C)o2)cc1C(=O)O", "Potency": "inconclusive: 1.58 µM [inhibitor, partial curve, poor fit]"}
